Measurements taken from the supplement of paper PMC3334620.
The full ranking holds about 33,000 sequences; the median of “E-score (-0.5 to 0.5)” is about -0.015, and the highest 2% start at about 0.3. The list shows a part of the results.

Target: T1, Abf1 (UniProt P14164)
T1 sequence: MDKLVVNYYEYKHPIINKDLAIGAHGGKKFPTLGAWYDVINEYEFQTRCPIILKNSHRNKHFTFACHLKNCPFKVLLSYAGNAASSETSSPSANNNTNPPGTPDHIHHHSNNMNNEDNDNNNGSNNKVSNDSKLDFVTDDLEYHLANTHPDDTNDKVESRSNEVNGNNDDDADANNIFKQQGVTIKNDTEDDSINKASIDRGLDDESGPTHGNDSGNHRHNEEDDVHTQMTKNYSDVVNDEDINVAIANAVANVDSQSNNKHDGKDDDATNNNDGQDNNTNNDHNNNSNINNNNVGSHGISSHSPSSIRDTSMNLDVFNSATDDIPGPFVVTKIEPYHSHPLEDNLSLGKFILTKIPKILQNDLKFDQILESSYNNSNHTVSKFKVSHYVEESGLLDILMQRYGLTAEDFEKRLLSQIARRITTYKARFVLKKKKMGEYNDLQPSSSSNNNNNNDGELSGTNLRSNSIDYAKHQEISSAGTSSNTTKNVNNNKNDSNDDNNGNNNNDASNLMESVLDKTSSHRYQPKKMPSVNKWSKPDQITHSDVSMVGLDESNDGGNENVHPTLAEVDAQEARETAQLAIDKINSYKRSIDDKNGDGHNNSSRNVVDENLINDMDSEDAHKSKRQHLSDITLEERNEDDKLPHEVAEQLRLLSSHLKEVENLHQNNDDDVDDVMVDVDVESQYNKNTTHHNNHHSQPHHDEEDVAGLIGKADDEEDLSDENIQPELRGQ
Test: PBM E-score (8-mer binding enrichment) (E-score (-0.5 to 0.5)); higher = stronger / more preferred TF binding
Details: protein concentration: 200 nM; construct: GST-full length
Procedure, shortened: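 Using PURExpress in vitro transcription/translation, GST-tagged yeast transcription factors were made in full-length or DNA-binding-domain form. These were applied at about 100-200 nM to double-stranded universal all-10-mer Agilent arrays, and bound protein was detected with fluorescent anti-GST. Scans were normalised with masliner before the Universal PBM Analysis Suite assigned E-scores to ungapped eight-base words pooled with their reverse complements.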

Sequence | PBM E-score
AAGCACTT | -0.0368
CTGTAGGA | -0.267
AGCATTGA | 0.026
AGGGAGCA | -0.172
TTCGTAAA | 0.216
ACACAACT | -0.0651
AGCTCATA | 0.0925
GTGATCAA | 0.392
AGTGCGCG | -0.139
CCGCACGA | 0.376
ATAGCACG | 0.126
ATGTTACC | 0.0782
CTAATGAG | 0.0956
CAATAGTC | -0.0584
AAAACGTT | 0.126
ACCGGATA | -0.161
AAGGTATT | 0.165
CCCATGAC | 0.0292
GTGCGGGA | -0.0179
ACGCGCCT | -0.0785
CAAATAAA | 0.186
AAGCGGTG | -0.034

Sequence | PBM E-score
CCTCAAGC | -0.0869
GGCAGGCA | -0.252
GTGGACTA | 0.077
CCCCCTAG | -0.114
AACTGTTC | -0.0835
ACGCGCAG | -0.0955
GAAATCGC | -0.0161
CCACACTA | 0.0817
CCTATGTC | 0.0872
AGCCCCAA | -0.184
GATACCCC | 0.0295
ACTCATCT | -0.0475
CTGGAGAA | -0.163
CAATTCGG | -0.00914
AATCCAGC | 0.00313
AAGTCGAT | -0.0117
CAGAAAAG | -0.106
AAATCTCC | -0.00978
CTGAATAC | -0.00099
TCATGCAA | -0.0503
AGCGATAC | 0.202
CAGATAGG | -0.0695

Sequence | PBM E-score
AACTCACT | -0.0717
CATTGGCA | 0.0719
AGTCTTGG | -0.0867
GGCCAAAC | -0.132
CGGCTAGC | 0.0226
TCCCCGCA | -0.022
GTCCGAGA | 0.162
AAGGGGAT | 0.0502
ATATTCGC | 0.127
CAAAGTTG | -0.0599
AAGAACAT | 0.157
CACATCGA | 0.0172
AAAGACCC | -0.0568
ATCAGCAA | 0.186
ATGCTTGA | 0.204
ACTGGAGA | -0.174
ATCACAAG | 0.0427
TCGATCCA | -0.00178
ATGCGCGA | 0.0935
CACGACAA | 0.25
CTCCCCTC | -0.276
AAGTACAA | 0.0278

Part of the list above, with each value named:
AGTCTTGG
  PBM E-score = -0.0867
ATGCTTGA
  PBM E-score = 0.204

The list continues:

Sequence | PBM E-score
ATCCGATA | 0.0815
GGGTATCA | 0.116
AGAGGACT | -0.354
AGGTTTAC | -0.133
CTCCCGGA | -0.117
AAGATGCG | -0.0486
GACGTGTA | 0.0729
AACACGAA | 0.205
CTGAGAAA | 0.047
CTCTTTTC | -0.0167
CTATGAAC | 0.0765
GAAGGCTA | -0.162
CGGATCCA | 0.11
AGTAGTCA | 0.16
AACACCAC | 0.00166
GCTGAAAA | 0.115
AGCTTACC | -0.162
GAGGTGAC | 0.264
CCATCATA | -0.0812
ACGTCACG | 0.326
